Article PMC7941204
These are yes or no findings as the source states them, for the method shown. Binding calls can cover weak binding; strength is not graded here.

Legend:
Ce RAD-51 (C. elegans) = biological target: T1, Ce RAD-51 (C. elegans) (UniProt Q95Q25); assay: native gel or EMSA; bulk EMSA, super-shift of RAD-51-ssDNA; 60 nM (nucleotides) 5'-32P 60-mer, 20 mM Tris-HCl pH 7.5, 50 mM sodium acetate, 2 mM MgCl2, 2 mM ATP, 25 C, cross-linked with 0.25% glutaraldehyde, 1% agarose gel; both purified
T1 sequence: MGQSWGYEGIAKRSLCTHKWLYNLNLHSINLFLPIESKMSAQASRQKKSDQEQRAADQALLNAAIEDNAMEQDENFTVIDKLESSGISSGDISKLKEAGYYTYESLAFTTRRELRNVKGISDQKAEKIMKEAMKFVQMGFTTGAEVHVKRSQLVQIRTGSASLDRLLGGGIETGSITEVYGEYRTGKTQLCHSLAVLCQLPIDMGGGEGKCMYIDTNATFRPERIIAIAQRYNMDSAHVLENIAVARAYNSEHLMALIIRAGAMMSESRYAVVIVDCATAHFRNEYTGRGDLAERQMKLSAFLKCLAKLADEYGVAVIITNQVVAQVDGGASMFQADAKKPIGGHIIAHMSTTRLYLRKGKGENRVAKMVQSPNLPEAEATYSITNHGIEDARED

[1] = biological target: T2, RAD-51 (yeast two-hybrid construct) (C. elegans) (UniProt Q95Q25); assay: two-hybrid; S. cerevisiae MaV103; selection on medium lacking leucine, tryptophan and histidine with 100 mM 3-AT; as described previously (Taylor et al., 2015)
T2 sequence: T1 sequence

Substance	binding (Ce RAD-51 (C. elegans))	binding [1]
Ce RFS-1 K56A/RIP-1-3xFLAG (C. elegans) (complex)	binds	–
Ce RFS-1 K56R/RIP-1-3xFLAG (C. elegans) (complex)	binds	–
RFS-1 K56A/RIP-1 mutant (yeast two-hybrid constructs) (C. elegans) (complex)	–	binds
